PubChem BioAssay AID1259331, Drosophila RNAi Screening Center, 2017

Aim: 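Fly transmembrane-protein genes that affect zinc toxicity in cultured cells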 (primary screen)
Cell system: Drosophila S2R+ cells
Knock-down reagent: long dsRNA against Drosophila genes
Time to read-out: 5 days (4 days knock-down, then 1 day zinc)
Challenge: zinc chloride at 15 mM final level for 1 day
Read-out: 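Total cellular ATP measured by luciferase luminescence as a viability proxy, turned into Z scores from three plate copies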
Reading the numbers: mean Z score: higher = more ATP than other wells, better survival under zinc; ATP luminescence: higher = more ATP, more viable cells
Rule for the call: 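a reagent is called a hit when its Z score is above 1.5 or below -1.5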
Meaning of the calls: active = hit, ATP up or down; inactive = not a hit
Here is an unselected part of about 3,100 deposited reagents. 126 of all reagents (4.1%) count as active. 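Calls are per reagent; zinc was so toxic that few knock-downs lowered ATP further, so most hits raise ATP.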 Raw values are not corrected between plates. The numbers tell different reagents against one gene apart. Reagent sequences are not shown. Not given: the amount of reagent.

CG3649 #1 — mean Z score = 0.0028; ATP luminescence, replicate 1 = 49520; ATP luminescence, replicate 2 = 38873; outcome = inactive
CG3649 #2 — mean Z score = 2.28; ATP luminescence, replicate 1 = 98625; ATP luminescence, replicate 2 = 94492; outcome = active
BicC #1 — mean Z score = 0.0816; ATP luminescence, replicate 1 = 57991; ATP luminescence, replicate 2 = 52898; outcome = inactive
BicC #2 — mean Z score = -0.186; ATP luminescence, replicate 1 = 58574; ATP luminescence, replicate 2 = 58488; outcome = inactive
robo3 #1 — mean Z score = -0.706; ATP luminescence, replicate 1 = 38197; ATP luminescence, replicate 2 = 36079; outcome = inactive
robo3 #2 — mean Z score = -0.385; ATP luminescence, replicate 1 = 39250; ATP luminescence, replicate 2 = 41171; outcome = inactive
CG1265 #1 — mean Z score = -0.338; ATP luminescence, replicate 1 = 69413; ATP luminescence, replicate 2 = 57391; outcome = inactive
CG1265 #2 — mean Z score = -0.0919; ATP luminescence, replicate 1 = 50904; ATP luminescence, replicate 2 = 45795; outcome = inactive
Gr36c #1 — mean Z score = -0.112; ATP luminescence, replicate 1 = 52144; ATP luminescence, replicate 2 = 35942; outcome = inactive
Gr36c #2 — mean Z score = 0.475; ATP luminescence, replicate 1 = 63187; ATP luminescence, replicate 2 = 62861; outcome = inactive
st #1 — mean Z score = -0.383; ATP luminescence, replicate 1 = 27456; ATP luminescence, replicate 2 = 29239; outcome = inactive
st #2 — mean Z score = -0.894; ATP luminescence, replicate 1 = 42405; ATP luminescence, replicate 2 = 52930; outcome = inactive
CG31741 — mean Z score = 0.427; ATP luminescence, replicate 1 = 56225; ATP luminescence, replicate 2 = 40296; outcome = inactive
stas — mean Z score = -0.0711; ATP luminescence, replicate 1 = 44068; ATP luminescence, replicate 2 = 50326; outcome = inactive
CG42287 — mean Z score = -0.0887; ATP luminescence, replicate 1 = 50515; ATP luminescence, replicate 2 = 59703; outcome = inactive
PIG-N — mean Z score = 0.0929; ATP luminescence, replicate 1 = 82502; ATP luminescence, replicate 2 = 73906; outcome = inactive

Sorted by “ATP luminescence, replicate 1” (lowest first): some entries from above.
BicC #1 — mean Z score = 0.0816; ATP luminescence, replicate 1 = 57991; ATP luminescence, replicate 2 = 52898; outcome = inactive
CG3649 #2 — mean Z score = 2.28; ATP luminescence, replicate 1 = 98625; ATP luminescence, replicate 2 = 94492; outcome = active
